No constants are given. Whether binding was seen depends on the method and setting. In cells and extracts the contact can be indirect. Some binding calls cover weakened binding; strength is not graded here. For part of these data: Where a sequence is shown, tags or fusion partners need not be part of it.
Legend:
Experiment in all cases: co-IP; LUMIER: Renilla luciferase-Smad3 and Flag-tagged partner co-expressed with constitutively active Alk5 in HEK-293; Flag protein captured from cleared lysate (TNE: 10 mM Tris-HCl pH 7.8, 150 mM NaCl, 1 mM EDTA, 1% Igepal CA-630) on anti-Flag 96-well plates, 2 h at 4 °C; co-precipitated Renilla luciferase activity, TrxGA background subtracted, percent of wild-type Smad3
[1] = target: Flag-hMEF2C(1-302) (human) (UniProt Q06413)
[2] = target: Flag-mAxin (mouse) (UniProt O35625)
[3] = target: 3XFlag-MyoD (UniProt P10085)
[4] = target: T1, SRF Smad-binding domain (amino acids 132–223) on the 3xFlag-thioredoxin scaffold (UniProt P11831)
T1 sequence: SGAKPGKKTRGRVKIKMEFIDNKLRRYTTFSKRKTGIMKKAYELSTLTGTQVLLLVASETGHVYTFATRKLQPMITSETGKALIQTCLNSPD

Sequences of proteins named here, by UniProt entry; tags and fusion partners are left off. A change or cut given only in a name is not applied to a line headed by its entry. A line that says so, or that is headed by a name, gives the form on record, which may keep a tag or linker. Residues count along the entry.
UniProt Q06413, residues 1-302: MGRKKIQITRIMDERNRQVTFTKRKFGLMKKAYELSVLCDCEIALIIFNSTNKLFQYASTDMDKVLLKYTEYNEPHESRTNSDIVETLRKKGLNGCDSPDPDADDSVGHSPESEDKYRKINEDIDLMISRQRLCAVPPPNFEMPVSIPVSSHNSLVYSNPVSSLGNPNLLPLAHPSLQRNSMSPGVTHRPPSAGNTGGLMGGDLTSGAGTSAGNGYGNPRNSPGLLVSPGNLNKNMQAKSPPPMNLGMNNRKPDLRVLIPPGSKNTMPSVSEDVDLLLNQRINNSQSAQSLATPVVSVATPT
UniProt O35625: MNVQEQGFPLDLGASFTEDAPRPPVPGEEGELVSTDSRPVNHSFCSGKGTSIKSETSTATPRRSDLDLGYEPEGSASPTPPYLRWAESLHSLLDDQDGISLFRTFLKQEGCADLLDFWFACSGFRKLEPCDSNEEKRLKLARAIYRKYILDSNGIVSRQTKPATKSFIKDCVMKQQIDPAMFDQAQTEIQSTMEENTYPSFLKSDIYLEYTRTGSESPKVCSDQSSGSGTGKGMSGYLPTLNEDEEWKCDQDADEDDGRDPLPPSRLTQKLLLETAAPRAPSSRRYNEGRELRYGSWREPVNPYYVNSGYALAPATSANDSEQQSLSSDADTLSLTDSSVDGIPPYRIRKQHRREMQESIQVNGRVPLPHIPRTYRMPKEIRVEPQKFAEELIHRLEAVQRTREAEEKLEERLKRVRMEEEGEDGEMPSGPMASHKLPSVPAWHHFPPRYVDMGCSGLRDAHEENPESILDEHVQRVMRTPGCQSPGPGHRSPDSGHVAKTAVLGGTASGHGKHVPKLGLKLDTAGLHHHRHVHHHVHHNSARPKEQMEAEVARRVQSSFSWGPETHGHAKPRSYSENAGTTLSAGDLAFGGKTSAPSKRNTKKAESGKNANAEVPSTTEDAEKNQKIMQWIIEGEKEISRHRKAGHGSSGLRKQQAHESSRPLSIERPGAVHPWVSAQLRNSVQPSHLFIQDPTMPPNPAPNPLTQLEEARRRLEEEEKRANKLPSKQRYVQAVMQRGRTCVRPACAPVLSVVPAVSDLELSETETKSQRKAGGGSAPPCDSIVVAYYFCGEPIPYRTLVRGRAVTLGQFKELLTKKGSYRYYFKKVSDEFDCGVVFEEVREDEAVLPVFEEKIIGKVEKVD
UniProt P10085: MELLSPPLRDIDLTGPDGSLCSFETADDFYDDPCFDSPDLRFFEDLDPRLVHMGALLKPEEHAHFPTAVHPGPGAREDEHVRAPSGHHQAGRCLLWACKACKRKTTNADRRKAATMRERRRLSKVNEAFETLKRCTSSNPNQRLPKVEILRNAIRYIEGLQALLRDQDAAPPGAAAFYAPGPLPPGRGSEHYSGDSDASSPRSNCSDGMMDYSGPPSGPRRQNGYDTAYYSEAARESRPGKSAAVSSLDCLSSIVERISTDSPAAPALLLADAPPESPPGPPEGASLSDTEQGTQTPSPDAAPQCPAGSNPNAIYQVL
UniProt Q92793, residues 1940-1998: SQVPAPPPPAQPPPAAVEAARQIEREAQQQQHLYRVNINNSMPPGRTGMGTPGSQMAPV
UniProt O43524, residues 153-249: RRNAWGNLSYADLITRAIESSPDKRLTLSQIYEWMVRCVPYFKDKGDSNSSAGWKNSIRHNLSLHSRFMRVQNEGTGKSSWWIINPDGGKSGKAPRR
UniProt P84022: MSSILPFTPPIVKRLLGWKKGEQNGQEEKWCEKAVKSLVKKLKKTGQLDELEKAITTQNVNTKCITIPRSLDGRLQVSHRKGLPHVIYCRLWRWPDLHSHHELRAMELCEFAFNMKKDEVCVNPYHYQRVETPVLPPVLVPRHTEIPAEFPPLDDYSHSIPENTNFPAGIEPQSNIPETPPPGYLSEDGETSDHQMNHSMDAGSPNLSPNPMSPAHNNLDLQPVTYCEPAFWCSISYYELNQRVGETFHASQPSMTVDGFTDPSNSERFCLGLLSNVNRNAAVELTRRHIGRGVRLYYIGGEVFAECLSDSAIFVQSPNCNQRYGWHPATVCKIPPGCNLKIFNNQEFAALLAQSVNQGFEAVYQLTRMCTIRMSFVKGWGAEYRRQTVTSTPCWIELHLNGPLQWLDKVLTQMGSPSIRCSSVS
Renilla luciferase-Smad3 QPSMT/SE mutant (residues 252–256 and 266–267 changed to the Smad1 equivalents STSVL/NKN) (P84022, form named): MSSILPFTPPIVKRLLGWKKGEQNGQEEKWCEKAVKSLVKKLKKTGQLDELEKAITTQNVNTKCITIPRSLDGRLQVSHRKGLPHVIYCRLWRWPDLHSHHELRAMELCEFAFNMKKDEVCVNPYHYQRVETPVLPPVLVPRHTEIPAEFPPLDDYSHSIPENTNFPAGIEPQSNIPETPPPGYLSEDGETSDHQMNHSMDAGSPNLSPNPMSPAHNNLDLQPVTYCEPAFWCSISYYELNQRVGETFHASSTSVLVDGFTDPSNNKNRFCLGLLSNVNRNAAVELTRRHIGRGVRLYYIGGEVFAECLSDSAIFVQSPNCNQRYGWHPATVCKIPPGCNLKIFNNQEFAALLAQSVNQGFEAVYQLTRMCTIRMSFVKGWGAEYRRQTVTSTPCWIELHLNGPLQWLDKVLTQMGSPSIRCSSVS

[5] = target: T2, ATF3 Smad-binding peptide (amino acids 61–111) on the 3xFlag-thioredoxin scaffold (UniProt P18847)
T2 sequence: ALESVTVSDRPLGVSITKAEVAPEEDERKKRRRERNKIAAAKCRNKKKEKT

[6] = target: CBP Smad-binding peptide (amino acids 1940–1998) on the 3xFlag-thioredoxin scaffold (UniProt Q92793)
[7] = target: T3, Flag-SkiW274E, full length (UniProt P12755)
T3 sequence: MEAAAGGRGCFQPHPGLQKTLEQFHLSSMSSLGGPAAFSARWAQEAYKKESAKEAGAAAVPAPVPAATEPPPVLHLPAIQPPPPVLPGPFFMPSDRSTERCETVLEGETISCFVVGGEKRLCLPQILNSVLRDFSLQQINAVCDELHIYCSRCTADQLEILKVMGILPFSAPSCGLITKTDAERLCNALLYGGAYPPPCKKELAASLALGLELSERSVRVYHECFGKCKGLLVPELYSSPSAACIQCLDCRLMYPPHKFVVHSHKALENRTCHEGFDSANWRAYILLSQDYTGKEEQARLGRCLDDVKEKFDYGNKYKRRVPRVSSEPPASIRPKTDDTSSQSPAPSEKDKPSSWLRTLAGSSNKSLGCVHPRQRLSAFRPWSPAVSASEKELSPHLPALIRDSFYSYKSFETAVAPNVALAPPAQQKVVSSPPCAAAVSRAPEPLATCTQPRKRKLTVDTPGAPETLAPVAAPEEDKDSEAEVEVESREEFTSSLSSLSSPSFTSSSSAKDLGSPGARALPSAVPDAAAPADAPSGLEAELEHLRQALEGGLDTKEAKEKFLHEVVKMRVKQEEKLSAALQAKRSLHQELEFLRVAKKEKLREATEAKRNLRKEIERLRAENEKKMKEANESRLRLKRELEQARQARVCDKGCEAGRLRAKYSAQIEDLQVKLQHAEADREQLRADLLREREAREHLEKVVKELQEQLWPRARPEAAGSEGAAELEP

[8] = target: FoxO3 Smad-binding domain (amino acids 153–249) on the 3xFlag-thioredoxin scaffold (UniProt O43524)
[9] = target: T4, SIP1 Smad-binding domain (amino acids 315–487) on the 3xFlag-thioredoxin scaffold (UniProt Q9R0G7)
T4 sequence: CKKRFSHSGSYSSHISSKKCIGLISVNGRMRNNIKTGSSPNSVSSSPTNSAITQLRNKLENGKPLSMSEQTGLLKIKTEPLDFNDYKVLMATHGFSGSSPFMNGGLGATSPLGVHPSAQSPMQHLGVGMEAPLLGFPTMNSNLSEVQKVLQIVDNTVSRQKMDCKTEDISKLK

[10] = target: T5, Flag-SARA, full length (UniProt O95405)
T5 sequence: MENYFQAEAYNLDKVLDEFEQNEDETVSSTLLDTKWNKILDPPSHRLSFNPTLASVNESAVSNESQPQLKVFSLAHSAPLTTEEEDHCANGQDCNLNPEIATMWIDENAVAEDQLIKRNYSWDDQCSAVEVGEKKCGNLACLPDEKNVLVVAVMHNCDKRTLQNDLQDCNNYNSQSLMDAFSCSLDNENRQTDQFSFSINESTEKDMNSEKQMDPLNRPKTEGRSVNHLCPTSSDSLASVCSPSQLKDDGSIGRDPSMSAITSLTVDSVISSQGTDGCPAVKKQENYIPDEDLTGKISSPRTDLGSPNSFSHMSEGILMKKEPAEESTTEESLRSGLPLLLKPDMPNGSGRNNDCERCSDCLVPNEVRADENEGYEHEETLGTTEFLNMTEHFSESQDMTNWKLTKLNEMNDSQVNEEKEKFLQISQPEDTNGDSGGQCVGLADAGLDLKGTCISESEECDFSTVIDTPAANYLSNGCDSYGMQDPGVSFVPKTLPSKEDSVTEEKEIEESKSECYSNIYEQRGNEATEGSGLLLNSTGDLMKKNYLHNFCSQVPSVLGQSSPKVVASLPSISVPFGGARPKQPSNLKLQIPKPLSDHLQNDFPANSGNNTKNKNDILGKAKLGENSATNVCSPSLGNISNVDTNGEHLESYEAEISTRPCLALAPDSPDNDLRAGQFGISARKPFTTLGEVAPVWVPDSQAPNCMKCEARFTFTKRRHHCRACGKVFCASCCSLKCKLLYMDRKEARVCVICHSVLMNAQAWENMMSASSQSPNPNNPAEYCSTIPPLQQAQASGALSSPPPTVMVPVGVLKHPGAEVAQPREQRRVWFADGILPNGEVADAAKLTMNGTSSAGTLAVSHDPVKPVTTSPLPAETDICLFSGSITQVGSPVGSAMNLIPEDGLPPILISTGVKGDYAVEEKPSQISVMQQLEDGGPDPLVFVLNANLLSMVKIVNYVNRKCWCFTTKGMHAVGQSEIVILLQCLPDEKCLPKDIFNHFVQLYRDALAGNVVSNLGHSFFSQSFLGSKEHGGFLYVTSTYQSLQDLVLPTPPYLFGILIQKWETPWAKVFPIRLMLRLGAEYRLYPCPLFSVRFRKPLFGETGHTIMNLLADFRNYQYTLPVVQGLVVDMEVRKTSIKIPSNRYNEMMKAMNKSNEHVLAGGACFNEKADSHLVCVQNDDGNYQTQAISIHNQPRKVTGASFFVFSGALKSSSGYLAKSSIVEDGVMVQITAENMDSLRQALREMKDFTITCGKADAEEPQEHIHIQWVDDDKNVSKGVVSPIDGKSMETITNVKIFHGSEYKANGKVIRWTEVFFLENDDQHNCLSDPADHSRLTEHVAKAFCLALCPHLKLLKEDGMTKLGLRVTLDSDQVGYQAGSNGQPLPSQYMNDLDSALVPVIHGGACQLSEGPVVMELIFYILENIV

Measured: binding

Renilla luciferase-Smad3 D408H (from UniProt P84022 1-425)
binds: [1] | [2] | [3] | [4] | [5]

Renilla luciferase-Smad3 K341A (from UniProt P84022 1-425)
binds: [6]

Renilla luciferase-Smad3 QPSMT/SE mutant (residues 252–256 and 266–267 changed to the Smad1 equivalents STSVL/NKN) (from UniProt P84022 1-425)
binds: [7]

Renilla luciferase-Smad3 V224A (from UniProt P84022 1-425)
binds: [1] | [2] | [3] | [4]

Renilla luciferase-Smad3 V356R (from UniProt P84022 1-425)
binds: [1] | [2] | [3] | [4]

Renilla luciferase-Smad3 W406A (from UniProt P84022 1-425)
binds: [1] | [2] | [3] | [6] | [4]

Renilla luciferase-Smad3 Y226A (from UniProt P84022 1-425)
binds: [1] | [2] | [3] | [4]

Renilla luciferase-Smad3 Y297A (from UniProt P84022 1-425)
binds: [1] | [8]

Renilla luciferase-Smad3 wild type, co-expressed with constitutively active Alk5 (phosphorylated Smad3) (from UniProt P84022 1-425)
binds: all assays above

From PMC3176292
